From US6984718B2 (Cytovia, Inc., priority 1998, dated 2006)

Tests used:
HL-60 cells = assay: Staining of HL-60 cells with dye, epifluorescence microscopy; format: cell-based; settings: 10 μM dye; for fluorescent signal emitted by stained cells: 2 hours at 37° C.; for retention of fluorescent signal in cells over time: resuspended in fresh medium without dye
[1] = general procedure: solution-phase peptide synthesis; EDC; settings: for conjugation yield: conjugation step

With `Nc1ccc2c(c1)Oc1cc(NC(=O)c3c(F)c(F)c(F)c(F)c3F)ccc1C21OC(=O)c2ccccc21` (stereo not drawn) [N-pentafluorobenzoyl-Rhodamine 110, N-Pentafluorobenzoyl-Rhodamine 110] as the compound, how does the “viewing period during which signal intensity remained constant” value (HL-60 cells) read?
The value was “at least 15 minutes”.

What about the “fluorescent signal emitted by stained cells” value (HL-60 cells) of the same compound?
The value was “strong yellowish-green fluorescent signal”.

What about the “retention of fluorescent signal in cells over time” value (HL-60 cells) of the same compound?
The value was “well retained by the cells”.

With `Cl.N=c1ccc2c(-c3ccccc3C(=O)O)c3ccc(N)cc3oc-2c1` [Rhodamine 110, reference compound] as the compound, how does the “fluorescent signal emitted by stained cells” value (HL-60 cells) read?
The value was “strong yellowish-green fluorescent signal”.

What about the “retention of fluorescent signal in cells over time” value (HL-60 cells) of the same compound?
The value was “rapidly faded with time”.

With “N-(Ac-Asp-Glu-Val-Asp)-N′-(2,3,4,5-tetrafluorobenzoyl)-Rhodamine 110 (SEQ ID NO:5)” as the compound, how does the step yield ([1]; late stage modification step) read?
The step yield was 99%.

For “N-(Ac-Asp-Glu-Val-Asp)-N′-pentafluorobenzoyl-Rhodamine 110 (SEQ ID NO:5)”, which step yield ([1]; late stage modification step) is on record?
The step yield was 89%/.

With “N-(Asp-Glu-Val-Asp)-N′-pentafluorobenzoyl-Rhodamine 110 HBr (SEQ ID NO:5)” as the compound, how does the step yield ([1]; late stage modification step, HBr) read?
The step yield was 92%.

Which step yield ([1]; late stage modification step) does the source give for “N-(Octanoyl-Asp-Glu-Val-Asp)-N′-pentafluorobenzoyl -Rhodamine 110 (SEQ ID NO:5)” here?
The step yield was 96%.

For “N-(Pentafluorobenzoyl-Asp-Glu-Val-Asp)-N′-pentafluorobenzoyl-Rhodamine 110 (SEQ ID NO:5)”, which step yield ([1]; late stage modification step) is on record?
The step yield was 35%.

Which step yield ([1]; coupling step) does the source give for “N-(Z-Ala-Ala-Ala-Ala)-N′-pentafluorobenzoyl-Rhodamine 110 (SEQ ID NO:77)” here?
The step yield was 61%.

For “N-(Z-Asp-Glu-Val-Asp)-N′-(2,4-bis(dodecanemercapto)-3,5,6-trifluorobenzoyl)Rhodamine 110 (SEQ ID NO:5)”, which step yield ([1]; late stage modification step) is on record?
Its step yield is 84%.

With “N-(Z-Asp-Glu-Val-Asp)-N′-pentafluorobenzoyl-Rhodamine 110 (SEQ ID NO:5)” as the compound, how does the step yield ([1]; late stage modification step) read?
The step yield was 100%.

With “N-(Z-Asp-Glu-Val-Asp-Gly)-N′-pentafluorobenzoyl-Rhodamine 110 (SEQ ID NO:76)” as the compound, how does the step yield ([1]; late stage modification step) read?
Its step yield is 91%.

With “N-(Z-Asp-Glu-Val-Asp-Gly-Gly)-N′-pentafluorobenzoyl-Rhodamine 110 (SEQ ID NO:75)” as the compound, how does the step yield ([1]; late stage modification step) read?
The step yield was 98%.

Which conjugation yield [1] does the source give for “N-[Ac-Asp(OBut)-Glu(OBut)-Val-Asp(OBut)]-N′-(2,3,4,5-tetrafluorobenzoyl)-Rhodamine 110 (SEQ ID NO:5)” here?
The conjugation yield was 27%.

For “N-[Ac-Asp(OBut)-Glu(OBut)-Val-Asp(OBut)]-N′-pentafluorobenzoyl-Rhodamine 110 (SEQ ID NO:5)”, which conjugation yield [1] is on record?
Its conjugation yield is 53%.

For “N-[Ac-Asp(OEt)-Glu(OEt)-Val-Asp(OEt)]-N′-pentafluorobenzoyl-Rhodamine 110 (SEQ ID NO:5)”, which conjugation yield [1] is on record?
Its conjugation yield is 45%.

With “N-[Ddz-Asp(OBut)-Glu(OBut)-Val-Asp(OBut)]-N′-pentafluorobenzoyl-Rhodamine 110 (SEQ ID NO:5)” as the compound, how does the conjugation yield [1] read?
Its conjugation yield is 21%.

Which step yield ([1]; lipidation step) does the source give for “N-[Octanoyl-Asp(OBut)-Glu(OBut)-Val-Asp(OBut)]-N′-pentafluorobenzoyl-Rhodamine 110 (SEQ ID NO:5)” here?
Its step yield is 64%.

For “N-[Pentafluorobenzoyl-Asp(OBut)-Glu(OBut)-Val-Asp(OBut)]-N′-pentafluorobenzoyl-Rhodamine 110 (SEQ ID NO:5)”, which step yield ([1]; late stage modification step) is on record?
The step yield was 40%.

For “N-[Z-Asp(OBut)-Glu(OBut)-Val-Asp(OBut)-Gly-Gly]-N′-pentafluorobenzoyl-Rhodamine 110 (SEQ ID NO:75)”, which step yield ([1]; coupling step) is on record?
The step yield was 49%.

Which step yield ([1]; coupling step) does the source give for “N-[Z-Asp(OBut)-Glu(OBut)-Val-Asp(OBut)-Gly]-N′-pentafluorobenzoyl-Rhodamine 110 (SEQ ID NO:5)” here?
The step yield was 78%.

For “N-[Z-Asp(OBut)-Glu(OBut)-Val-Asp(OBut)]-N′-(2,4-bis(dodecanemercapto)-3,5,6trifluorobenzoyl)-Rhodamine 110 (SEQ ID NO:5)”, which step yield ([1]; lipidation step) is on record?
Its step yield is 82%.

For “N-[Z-Asp(OBut)-Glu(OBut)-Val-Asp(OBut)]-N′-pentafluorobenzoyl-Rhodamine 110 (SEQ ID NO:5)”, which conjugation yield [1] is on record?
The conjugation yield was 38%.

Which step yield ([1]; coupling step) does the source give for “N-[Z-Glu(OBut)-Val-Asp(OBut)-Gly]-N′-pentafluorobenzoyl-Rhodamine 110 (SEQ ID NO:71)” here?
Its step yield is 45%.

Which step yield ([1]; late stage modification step) does the source give for “N—[H2N-Asp(OBut)-Glu(OBut)-Val-Asp(OBut)]-N′-pentafluorobenzoyl-Rhodamine 110 (SEQ ID NO:5)” here?
Its step yield is 78%.
